Assay results taken from publication PMC11014856.
These are yes or no findings as the source states them, for the method shown. In cells and extracts the contact can be indirect. Some binding calls cover weakened binding; strength is not graded here.

Sequences of proteins named here, by UniProt entry; tags and fusion partners are left off. Residues count along the entry.
UniProt Q8NFZ4, residues 15-835: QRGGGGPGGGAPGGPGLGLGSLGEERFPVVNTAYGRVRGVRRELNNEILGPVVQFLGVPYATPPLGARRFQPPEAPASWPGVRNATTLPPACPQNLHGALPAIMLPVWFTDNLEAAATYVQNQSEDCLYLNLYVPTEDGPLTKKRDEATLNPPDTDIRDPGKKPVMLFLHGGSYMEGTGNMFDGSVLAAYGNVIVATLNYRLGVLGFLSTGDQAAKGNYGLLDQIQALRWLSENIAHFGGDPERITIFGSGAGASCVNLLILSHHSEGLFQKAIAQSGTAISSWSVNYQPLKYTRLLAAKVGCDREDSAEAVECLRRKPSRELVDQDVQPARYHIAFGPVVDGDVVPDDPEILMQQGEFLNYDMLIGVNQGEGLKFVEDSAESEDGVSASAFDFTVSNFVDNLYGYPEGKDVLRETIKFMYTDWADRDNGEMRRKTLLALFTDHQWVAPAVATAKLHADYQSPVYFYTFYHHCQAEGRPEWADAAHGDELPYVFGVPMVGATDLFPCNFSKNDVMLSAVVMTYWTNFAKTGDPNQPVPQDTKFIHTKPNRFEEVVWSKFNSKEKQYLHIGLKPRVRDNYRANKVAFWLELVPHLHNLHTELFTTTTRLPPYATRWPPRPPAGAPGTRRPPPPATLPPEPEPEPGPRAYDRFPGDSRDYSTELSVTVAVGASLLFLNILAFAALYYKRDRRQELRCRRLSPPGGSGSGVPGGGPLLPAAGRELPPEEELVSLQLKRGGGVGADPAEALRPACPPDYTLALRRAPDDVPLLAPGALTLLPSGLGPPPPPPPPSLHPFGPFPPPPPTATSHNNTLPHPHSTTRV

Assays:
[1] = biological target: PATJ (human (endogenous in WT-HPDE)) (UniProt Q8NI35); assay: co-IP; endogenous proteins; lysates of Ctrl and shNLGN2 (NLGN2-silenced) WT-HPDE cells at mature confluence, homogenized in cold EB buffer (QIAGEN) and clarified; extracts incubated overnight with Dynabeads preincubated with a primary antibody (1 µg per mg of protein); western blot
[2] = biological target: PALS1 (human (endogenous in WT-HPDE)) (UniProt Q8N3R9); assay: as above

| binding [1] | binding [2] | Substance |
| --- | --- | --- |
| binds |  | neuroligin-2 (from UniProt Q8NFZ4 15-835) |
| binds | binds | AMOT (from UniProt Q4VCS5 1-1084) |
| binds | binds | YAP (from UniProt P46937 1-504) |
